Results are given in words; binding and its absence hold for the method and conditions named. Some entries that bind do so weakly or less than the wild type. For some assays here: Sequences can lack the tags named with a protein.
Assays:
NIX(1–182)-GST (human) [1] = biological target: NIX(1–182)-GST (human) (UniProt O60238); assay: microscopy-based bead assay; GST-tagged bait on Glutathione Sepharose 4B beads, GFP- or mCherry-tagged prey in solution, confocal imaging; both purified
[2] = biological target: BCL2L13(1–465)-GST (human) (UniProt Q9BXK5); assay: microscopy-based bead assay; GST-tagged cargo receptors on beads, GFP-tagged FIP200-CTR or full-length FIP200 in solution, in the presence of lambda protein phosphatase; both purified
FUNDC1(1–50)-GST (human) [3] = biological target: T1, FUNDC1(1–50)-GST (human) (UniProt Q8IVP5); assay: as above
T1 sequence: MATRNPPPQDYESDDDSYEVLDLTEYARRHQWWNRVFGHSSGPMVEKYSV

The chains behind the UniProt entries cited, without tags or fusion partners. Where a name states a change or a piece, a line headed by the entry shows the natural chain unless it says otherwise. Residues count along the entry.
UniProt O60238, residues 1-182: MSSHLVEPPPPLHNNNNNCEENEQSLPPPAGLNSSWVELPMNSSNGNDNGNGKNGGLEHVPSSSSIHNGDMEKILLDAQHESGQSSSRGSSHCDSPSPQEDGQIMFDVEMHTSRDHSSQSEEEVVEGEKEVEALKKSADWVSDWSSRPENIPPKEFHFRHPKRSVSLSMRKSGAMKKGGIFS
UniProt Q9BXK5, residues 1-465: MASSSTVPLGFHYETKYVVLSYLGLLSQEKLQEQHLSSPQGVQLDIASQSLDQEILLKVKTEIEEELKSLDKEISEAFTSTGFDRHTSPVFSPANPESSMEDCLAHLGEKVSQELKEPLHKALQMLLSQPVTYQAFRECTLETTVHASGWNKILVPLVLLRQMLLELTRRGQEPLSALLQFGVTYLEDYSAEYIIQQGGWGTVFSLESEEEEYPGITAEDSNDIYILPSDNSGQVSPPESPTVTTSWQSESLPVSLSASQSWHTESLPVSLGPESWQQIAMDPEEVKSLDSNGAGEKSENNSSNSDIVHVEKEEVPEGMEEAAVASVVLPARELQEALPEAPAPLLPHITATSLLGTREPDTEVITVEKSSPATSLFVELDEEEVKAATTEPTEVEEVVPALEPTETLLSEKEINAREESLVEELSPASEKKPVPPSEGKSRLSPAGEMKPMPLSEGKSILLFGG
UniProt Q8TDY2: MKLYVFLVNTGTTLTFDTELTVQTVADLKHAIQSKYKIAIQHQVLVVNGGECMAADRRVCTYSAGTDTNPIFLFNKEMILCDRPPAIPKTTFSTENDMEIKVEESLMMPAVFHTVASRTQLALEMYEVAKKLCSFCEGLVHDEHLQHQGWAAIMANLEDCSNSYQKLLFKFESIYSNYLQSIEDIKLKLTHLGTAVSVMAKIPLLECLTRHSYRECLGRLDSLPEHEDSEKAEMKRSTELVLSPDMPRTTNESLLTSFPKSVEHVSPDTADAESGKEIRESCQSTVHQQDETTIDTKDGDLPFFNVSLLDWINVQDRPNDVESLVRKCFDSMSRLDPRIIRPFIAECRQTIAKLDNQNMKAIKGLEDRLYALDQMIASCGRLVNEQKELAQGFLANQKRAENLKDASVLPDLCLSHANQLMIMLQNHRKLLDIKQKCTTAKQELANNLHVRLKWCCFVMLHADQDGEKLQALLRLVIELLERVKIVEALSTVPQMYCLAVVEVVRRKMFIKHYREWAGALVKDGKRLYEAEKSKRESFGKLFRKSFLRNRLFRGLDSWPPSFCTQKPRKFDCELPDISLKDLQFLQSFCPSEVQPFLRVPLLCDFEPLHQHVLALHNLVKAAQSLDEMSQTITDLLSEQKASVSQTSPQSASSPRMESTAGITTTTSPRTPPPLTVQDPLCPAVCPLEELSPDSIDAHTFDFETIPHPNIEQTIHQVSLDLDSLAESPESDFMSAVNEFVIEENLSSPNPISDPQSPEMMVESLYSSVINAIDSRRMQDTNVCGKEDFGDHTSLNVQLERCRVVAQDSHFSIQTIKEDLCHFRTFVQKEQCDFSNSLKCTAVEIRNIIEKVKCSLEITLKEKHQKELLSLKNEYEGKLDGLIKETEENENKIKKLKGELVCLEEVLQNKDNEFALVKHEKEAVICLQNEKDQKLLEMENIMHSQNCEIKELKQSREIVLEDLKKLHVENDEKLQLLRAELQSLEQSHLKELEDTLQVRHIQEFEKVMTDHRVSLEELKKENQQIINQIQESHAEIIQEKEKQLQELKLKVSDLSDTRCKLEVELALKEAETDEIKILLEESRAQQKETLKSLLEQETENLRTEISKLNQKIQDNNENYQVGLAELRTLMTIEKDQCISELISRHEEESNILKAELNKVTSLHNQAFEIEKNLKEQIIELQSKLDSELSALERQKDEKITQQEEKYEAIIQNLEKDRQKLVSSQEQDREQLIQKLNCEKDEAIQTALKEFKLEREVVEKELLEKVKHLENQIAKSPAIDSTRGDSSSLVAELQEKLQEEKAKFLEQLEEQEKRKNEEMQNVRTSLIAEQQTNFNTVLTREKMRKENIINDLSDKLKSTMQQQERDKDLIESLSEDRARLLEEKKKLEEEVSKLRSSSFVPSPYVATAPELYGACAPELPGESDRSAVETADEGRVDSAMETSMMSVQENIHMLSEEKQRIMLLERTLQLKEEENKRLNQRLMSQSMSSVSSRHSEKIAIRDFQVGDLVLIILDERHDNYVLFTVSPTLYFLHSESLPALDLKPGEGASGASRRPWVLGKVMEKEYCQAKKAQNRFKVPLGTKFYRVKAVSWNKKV
UniProt Q6ZNE5: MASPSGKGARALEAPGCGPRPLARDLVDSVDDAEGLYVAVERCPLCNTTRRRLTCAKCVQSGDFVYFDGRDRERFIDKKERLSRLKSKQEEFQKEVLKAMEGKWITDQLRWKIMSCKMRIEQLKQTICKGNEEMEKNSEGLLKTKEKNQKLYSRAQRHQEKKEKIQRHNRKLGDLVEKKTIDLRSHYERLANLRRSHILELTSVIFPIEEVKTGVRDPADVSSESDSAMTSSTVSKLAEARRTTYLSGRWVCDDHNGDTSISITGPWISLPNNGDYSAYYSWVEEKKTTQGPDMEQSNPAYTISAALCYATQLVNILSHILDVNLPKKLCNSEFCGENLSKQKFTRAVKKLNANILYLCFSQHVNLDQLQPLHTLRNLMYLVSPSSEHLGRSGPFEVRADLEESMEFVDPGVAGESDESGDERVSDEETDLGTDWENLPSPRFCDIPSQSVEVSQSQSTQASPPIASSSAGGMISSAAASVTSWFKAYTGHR

NIX(1–182)-GST (human) [4] = biological target: NIX(1–182)-GST (human) (UniProt O60238); assay: as above
[5] = biological target: BCL2L13(1–465)-GST (human) (UniProt Q9BXK5); assay: microscopy-based bead assay; GST-tagged cargo receptors on beads, GFP-tagged FIP200-CTR or full-length FIP200 in solution, with the kinases TBK1, MBP-ULK1, CK2 or Src (Y530F) and ATP/MgCl2; both purified
FUNDC1(1–50)-GST (human) [6] = biological target: T1, FUNDC1(1–50)-GST (human); assay: as above
NIX(1–182)-GST (human) [7] = biological target: NIX(1–182)-GST (human) (UniProt O60238); assay: as above

binding (NIX(1–182)-GST (human) [1]) | binding [2] | binding (FUNDC1(1–50)-GST (human) [3]) | binding (NIX(1–182)-GST (human) [4]) | binding [5] | binding (FUNDC1(1–50)-GST (human) [6]) | binding (NIX(1–182)-GST (human) [7]) | Substance
no binding | binds | binds | no binding | binds | binds | no binding | FIP200-GFP (full-length FIP200) (from UniProt Q8TDY2 1-1594)
no binding | – | – | – | – | – | – | mCherry-tagged PI3KC3–C1 complex (from UniProt Q6ZNE5 1-492; Q8NEB9 1-887; Q99570 1-1358; Q14457 1-450)

— paper PMC12339401
